Results as given in publication PMC6333852.
Results are given in words; binding and its absence hold for the method and conditions named. In cells and extracts the contact can be indirect. Here binding means that the protein was enriched with, or labelled near, the bait; the list need not be complete.

Molecular target: epidermal growth factor receptor (EGFR) (human (endogenous in hBMECs)) (UniProt P00533)
Assay: affinity purification with mass spectrometry; anti-EGFR antibody immunoprecipitation from lysates of control and infected (PCN033, SC19) hBMECs; SDS-PAGE bands identified by mass spectrum analysis

binding: binds
Substance: α-actinin-4 (ACTN4) (from UniProt O43707 1-911)
